Measured data: PubChem BioAssay AID504808 (Drosophila RNAi Screening Center, 2011)

- Assay: 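Genes whose loss lifts activity of an E2F-responsive reporter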 (primary screen)
- Cell system: Drosophila S2 cells
- Reagent: long dsRNA against Drosophila genes
- Measurement: 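Firefly luciferase driven by E2F sites, normalised to Renilla luciferase on the same minimal promoter, measured by plate reader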
- Scale: E2F firefly: higher = more E2F reporter activity; Renilla normaliser: higher = more normaliser reporter signal
- Active means: 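a knock-down counted as active when the firefly/Renilla E2F signal rose above 50%, a threshold chosen arbitrarily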
In all, the deposit lists about 21,000 reagents; shown is a random part of those that have a named target and a result. In the full data, 18 (0.084%) got an active call. 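Raw counts without plate normalisation, one of two replicates; the ratio scores behind the calls were not deposited.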 The numbers tell different reagents against one gene apart. Reagent sequences are not shown. Not given: the amount of reagent, the time to read-out.

CG3223 → E2F firefly, rep 1: 1.26e5; Renilla normaliser, rep 1: 6416; Outcome: inactive
CG3085 → E2F firefly, rep 1: 74522; Renilla normaliser, rep 1: 3191; Outcome: inactive
Ir40a #1 → E2F firefly, rep 1: 1.09e5; Renilla normaliser, rep 1: 4238; Outcome: inactive
Ir40a #2 → E2F firefly, rep 1: 1.04e5; Renilla normaliser, rep 1: 4447; Outcome: inactive
CG15332 → E2F firefly, rep 1: 1.11e5; Renilla normaliser, rep 1: 4650; Outcome: inactive
CG32985 → E2F firefly, rep 1: 1.47e5; Renilla normaliser, rep 1: 5565; Outcome: inactive

Next part (2 carried over from the part before).
CG15332 → E2F firefly, rep 1: 1.11e5; Renilla normaliser, rep 1: 4650; Outcome: inactive
CG32985 → E2F firefly, rep 1: 1.47e5; Renilla normaliser, rep 1: 5565; Outcome: inactive
Pp1-13C → E2F firefly, rep 1: 1.39e5; Renilla normaliser, rep 1: 6089; Outcome: inactive
CG4324 → E2F firefly, rep 1: 1.18e5; Renilla normaliser, rep 1: 4263; Outcome: inactive
Rbp1 → E2F firefly, rep 1: 66500; Renilla normaliser, rep 1: 3528; Outcome: inactive
CG13018 → E2F firefly, rep 1: 98319; Renilla normaliser, rep 1: 4571; Outcome: inactive
CG43707 → E2F firefly, rep 1: 1.30e5; Renilla normaliser, rep 1: 4930; Outcome: inactive
Hmt-1 → E2F firefly, rep 1: 77851; Renilla normaliser, rep 1: 3832; Outcome: inactive
